{"source": "paper PMC12585102", "binders": {"B1": {"name": "EcMAVS-GFP (mitochondrial antiviral signalling protein of Epinephelus coioides, GFP-tagged) (protein, UniProt A0A2D1AFT4 1-563)", "chain": "MSFVNDRLYNEFVRRKMSIFVHKVDVGEIIYHLPCLTAHDREHIEAKRQNRGNREGVMELLDCLKRRENWPEQFIEALDACEQWTLAAEMREKYNALRGIKRAAVAPPAEASAPPEPAAQASPPVQPQAPQSSAAQVPEAVSPPEPVPEPPQSTQAEVAPPPSTPPPSPAAPHTQPATPPPPQRETNSHQEPVENSESDIQDVSADDVVIPDQVSAGNREVSISSVDAPQPSRPVEQCETHTASPDPLQTTTTSTEVSPPQSPSASQMNSDVTNGSSFLTLTPERPPVQDTSPPGDFKAVLQPEETSEPPAAQVVESSPQTEAAATTSPPLGAAGMGAPLCGDSSVCLSKPGPLISVHPLNHSSPTIPAQSLPVPPYSGNTERLEISSSVSDAVTTAQSSTCSYVSSTTVTTASAPPCQETGIALNHNEPEENHYESPRNSLGMQSVQEHVGHVSEEPSILNLDGQNLTPQVPAVDSEAAKEMTFAPPLSNTAADTVRSVNTSCSENHHPCEPTPTDLSAEQKTLQGSEDKMACRTLTPNTKYILIAAGVGVCALLIAWRFKH"}}, "target": "Zinc finger NFX1-type containing 1 of Epinephelus coioides, HA-tagged (EcZNFX1-HA) (Epinephelus coioides)", "experiment": "co-IP; HEK-293T cells co-transfected, lysed 36 h after transfection; supernatant incubated with anti-HA magnetic beads 1-2 h, washed five times; Western blot", "note": "These are yes or no findings as the source states them, for the method shown. In cells and extracts the contact can be indirect. Tags and fused reporters may be left off the sequences shown."}
{"binder": "B1", "values": [{"measurement": "binding", "value": "no binding"}]}
